This note sets out measurements from doi:10.1101/2021.05.03.442316.

Amino acid sequences for entries named in this document (tags omitted). A change or cut given only in a name is not applied to a line headed by its entry. Chains listed by the source or under a name are the forms on record and can include a tag or linker.
UniProt Q64131: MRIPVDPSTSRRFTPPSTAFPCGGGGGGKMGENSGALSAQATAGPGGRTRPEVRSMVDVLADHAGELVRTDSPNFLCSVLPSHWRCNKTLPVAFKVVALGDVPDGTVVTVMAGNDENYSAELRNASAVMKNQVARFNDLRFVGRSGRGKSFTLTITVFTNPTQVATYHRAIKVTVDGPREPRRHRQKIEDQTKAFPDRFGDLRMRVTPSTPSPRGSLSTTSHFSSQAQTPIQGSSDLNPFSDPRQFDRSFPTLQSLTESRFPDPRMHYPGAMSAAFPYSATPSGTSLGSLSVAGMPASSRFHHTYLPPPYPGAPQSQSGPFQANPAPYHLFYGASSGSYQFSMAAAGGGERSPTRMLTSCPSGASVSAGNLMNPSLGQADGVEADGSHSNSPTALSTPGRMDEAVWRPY
RUNX3 (P1) (Q13761-2, form named): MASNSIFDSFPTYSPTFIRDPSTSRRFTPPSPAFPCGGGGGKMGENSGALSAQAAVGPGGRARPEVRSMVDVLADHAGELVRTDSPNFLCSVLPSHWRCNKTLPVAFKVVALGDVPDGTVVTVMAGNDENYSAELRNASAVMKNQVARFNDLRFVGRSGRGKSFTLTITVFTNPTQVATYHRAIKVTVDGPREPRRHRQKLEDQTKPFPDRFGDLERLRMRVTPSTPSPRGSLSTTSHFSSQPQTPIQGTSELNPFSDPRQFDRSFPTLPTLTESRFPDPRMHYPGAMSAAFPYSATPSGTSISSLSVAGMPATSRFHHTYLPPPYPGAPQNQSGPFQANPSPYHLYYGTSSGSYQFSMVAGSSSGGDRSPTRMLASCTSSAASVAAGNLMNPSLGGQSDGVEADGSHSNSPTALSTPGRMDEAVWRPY
UniProt P02340: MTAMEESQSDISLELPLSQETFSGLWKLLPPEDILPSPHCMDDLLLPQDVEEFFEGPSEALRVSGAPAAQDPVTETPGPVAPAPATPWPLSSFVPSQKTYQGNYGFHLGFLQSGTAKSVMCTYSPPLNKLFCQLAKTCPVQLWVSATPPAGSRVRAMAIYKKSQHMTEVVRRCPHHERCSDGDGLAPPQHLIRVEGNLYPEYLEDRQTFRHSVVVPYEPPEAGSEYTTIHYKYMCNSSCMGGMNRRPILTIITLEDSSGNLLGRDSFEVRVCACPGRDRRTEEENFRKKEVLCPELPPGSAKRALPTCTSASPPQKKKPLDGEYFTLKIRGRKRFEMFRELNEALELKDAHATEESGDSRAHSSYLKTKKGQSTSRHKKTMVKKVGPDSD

Results are given in words; binding and its absence hold for the method and conditions named. In cells and extracts the contact can be indirect. Some binding calls cover weakened binding; strength is not graded here.

Experiment [1] deals with human wild-type p53 (human) (UniProt P04637). The experiment is described as follows: co-IP.
Experiment [2] addresses Runx3 (endogenous mouse Runx3) (mouse (endogenous in mOS1-1 and ST2)) (UniProt Q64131). The experiment is described as follows: co-IP.

With “RUNX3 (P1) (from UniProt Q13761-2 1-429)”, in experiment [1], the binding entry was “binds”.
Consider “p53 (endogenous mouse p53) (from UniProt P02340 1-390)”, for which the binding entry in experiment [2] was “binds”.
